PubChem BioAssay AID602196 | INSERM – 2012
Here is a random part of about 23,000 deposited reagents. Of all reagents, 455 (2%) got an active call. 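Active includes both protection and sensitisation; some change values fall well beyond the stated -50 to +50 range.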 Not all columns of the deposit are shown. The record does not give: the amount of reagent.

Aim: 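Genes whose knock-down alters cisplatin killing of lung cancer cells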
Cell system: human A549 lung cancer cells
Reagents: siRNA pair against human genes
Duration: 48 h transfection before cisplatin; time from cisplatin to read-out not stated
Challenge: cisplatin at a dose killing half of control-siRNA cells; exact dose and duration not given
Detection: 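Shift in cisplatin death relative to control siRNA, from -50 (all cells die) to +50 (no cells die); siRNAs harmful on their own scored 0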
Reading the numbers: two-siRNA summed score (-2 to +2): higher = both siRNAs protect from cisplatin killing; -2 means both sensitise; mean protection from cisplatin (shift in death): higher = protection from cisplatin killing
Hit rule: 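Each siRNA scores 0 if harmful alone by LDH or WST-1, otherwise +1 if it reduces and -1 if it increases cisplatin killing; a gene is active when both siRNAs agree (sum +2 or -2)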
Meaning of the calls: active = both siRNAs shift cisplatin killing the same way; inactive = no consistent shift, or siRNA harmful alone

no.	gene	two-siRNA summed score (-2 to +2)	mean protection from cisplatin (shift in death) (%)	Outcome
1	ZNFX1	0	-2.9	inactive
2	NPHP4	1	7.6	inactive
3	STC2	0	-3.5	inactive
4	ZDHHC9	-2	-16.8	active
5	MAK	0	3.8	inactive
6	VSIG1	1	14.5	inactive
7	LOC391428	0	13.1	inactive
8	NOTCH2NLA	1	8.5	inactive
9	LOC388220	1	14.1	inactive
10	LOC389166	1	7.2	inactive
11	BOC	0	6.2	inactive
12	LOC387804	1	5.1	inactive
13	PPCS	0	5	inactive
14	TCERG1	0	6.2	inactive
15	ITM2A	0	1.7	inactive
16	HPS3	-1	-5.5	inactive
17	DAPK1	0	3.8	inactive
18	PRMT7	0	-5.7	inactive
19	BSCL2	0	-5.8	inactive
20	FAM237A	0	5.9	inactive
21	ZNF687	-1	-10.2	inactive
22	LOC441873	1	12.7	inactive
23	LOC440029	1	25.2	inactive
24	LOC389268	0	7	inactive
25	TRAF4	0	3.6	inactive
26	LOC388934	0	2.8	inactive
27	CDH18	-1	-10.4	inactive
28	NSD1	1	8.4	inactive
29	EEF1DP3	0	5.5	inactive
30	PRPF31	0	-23	inactive
31	LINC02245	0	3.8	inactive
32	PON1	0	-10.3	inactive
33	LOC392164	2	16.3	active
34	CGAS	0	6.6	inactive
35	SPATA6	0	3.4	inactive
36	ADAT3	-1	-16.1	inactive
37	LAMC3	1	12.8	inactive
38	IL16	0	-12.6	inactive
39	LINC02872	0	11.7	inactive
40	ZNF232	1	12	inactive
41	TAOK3	0	1.9	inactive
42	INSL5	1	8.1	inactive
43	RAD51AP1	0	2.6	inactive
44	MCEE	0	1.8	inactive
45	LOC148003	0	3.5	inactive
46	C4orf17	0	7	inactive
47	IP6K2	0	6	inactive
48	ANKRD45	1	9.7	inactive
49	STXBP2	0	5.9	inactive
50	LOC387787	1	10.3	inactive
51	LOC441805	0	11.1	inactive
52	MYCBPAP	0	13.5	inactive
53	TAX1BP1	0	12.6	inactive
54	ZNF484	0	11.3	inactive
55	SLC5A8	0	1.4	inactive
56	ASF1A	0	11	inactive
57	MYH15	1	9.8	inactive
58	LAMA3	0	-1.5	inactive
59	UXT	0	2.5	inactive
60	LOC339162	1	15	inactive
61	TAC4	0	10.6	inactive
62	LOC400940	1	11.9	inactive
63	LOC440052	1	14.8	inactive
64	TLE1	0	-4.1	inactive
65	CHDH	0	-1.6	inactive
66	MBL2	0	6.1	inactive
67	MGC35030	1	22.9	inactive
68	WSB2	-2	-26.3	active
69	OR5T2	0	9.3	inactive
70	CAMK1G	0	24.3	inactive
71	LOC340571	0	-10.1	inactive
72	SRGAP3	0	-0.6	inactive
73	LOC387745	0	3.7	inactive

Sorted by “mean protection from cisplatin (shift in death) (%)” (low to high): 10 of the entries above.
gene	two-siRNA summed score (-2 to +2)	mean protection from cisplatin (shift in death) (%)	Outcome
WSB2	-2	-26.3	active
LOC340571	0	-10.1	inactive
TLE1	0	-4.1	inactive
CHDH	0	-1.6	inactive
SRGAP3	0	-0.6	inactive
MBL2	0	6.1	inactive
OR5T2	0	9.3	inactive
LOC440052	1	14.8	inactive
MGC35030	1	22.9	inactive
CAMK1G	0	24.3	inactive
